From paper doi:10.1101/2024.02.27.582253
Residue numbers refer to the chain shown, from its start. These are yes or no findings as the source states them, for the method shown. Binding seen in cells or lysates may run through a third protein. Some binding calls cover weakened binding; strength is not graded here. Sequences can lack the tags named with a protein.

T1: TAP-Upf1-FL-G377R (S. cerevisiae) (S. cerevisiae) (UniProt P30771)
T1 sequence: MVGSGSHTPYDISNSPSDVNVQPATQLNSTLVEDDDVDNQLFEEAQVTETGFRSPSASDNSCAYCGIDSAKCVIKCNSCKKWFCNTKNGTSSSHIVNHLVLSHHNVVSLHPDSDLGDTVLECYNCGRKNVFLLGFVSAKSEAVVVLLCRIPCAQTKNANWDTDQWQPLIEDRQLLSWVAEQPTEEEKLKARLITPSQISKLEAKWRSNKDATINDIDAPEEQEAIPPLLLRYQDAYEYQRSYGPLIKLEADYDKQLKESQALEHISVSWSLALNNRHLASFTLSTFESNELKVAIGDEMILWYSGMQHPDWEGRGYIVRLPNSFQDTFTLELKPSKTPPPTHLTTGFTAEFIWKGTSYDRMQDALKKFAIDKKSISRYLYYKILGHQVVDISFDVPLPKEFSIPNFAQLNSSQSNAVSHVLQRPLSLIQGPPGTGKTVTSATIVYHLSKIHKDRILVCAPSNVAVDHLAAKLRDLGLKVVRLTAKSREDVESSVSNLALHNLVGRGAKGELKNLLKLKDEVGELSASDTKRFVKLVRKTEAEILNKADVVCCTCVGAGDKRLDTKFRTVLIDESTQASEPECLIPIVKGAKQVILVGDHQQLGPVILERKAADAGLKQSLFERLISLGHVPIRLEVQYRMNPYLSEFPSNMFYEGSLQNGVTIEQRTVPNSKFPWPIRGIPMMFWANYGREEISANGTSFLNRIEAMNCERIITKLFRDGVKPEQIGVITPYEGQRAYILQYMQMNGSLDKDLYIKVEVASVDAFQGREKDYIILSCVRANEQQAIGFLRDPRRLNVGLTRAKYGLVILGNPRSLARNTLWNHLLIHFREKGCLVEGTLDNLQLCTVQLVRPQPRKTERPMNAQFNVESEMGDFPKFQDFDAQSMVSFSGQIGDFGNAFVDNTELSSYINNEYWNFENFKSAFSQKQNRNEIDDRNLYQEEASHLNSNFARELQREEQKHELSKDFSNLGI

T2: TAP-Upf1-FL-G243R (S. cerevisiae) (S. cerevisiae) (UniProt P30771)
T2 sequence: T1 sequence with G243R, R377G

T3: TAP-Upf1-FL (S. cerevisiae full-length Upf1, N-terminal TAP tag, from a plasmid) (S. cerevisiae) (UniProt P30771)
T3 sequence: T1 sequence with R377G

T4: Upf1-FL-TAP (S. cerevisiae full-length Upf1, TAP tag) (S. cerevisiae) (UniProt P30771)
T4 sequence: T1 sequence with R377G

B1: Nmd4-FL-HA (S. cerevisiae, C-terminal 3HA tag at the genomic locus) (protein, UniProt Q12129 1-218)
chain: MTQYNFIIDASAFEKGLGNIKRWCSDCTEAVTLNFYIPTFTLNELDFLQQRRKSFAARESLKFIDRLDDSKFANLKVFIEFPEVLDIILWSDVMEHNDSSGKINIAKLPKRLKNLLKSCIYKCYLEGNEGLHWFLISEDPQIREMAMQCNIPSCSIVDVDSILSKDMNDKSFRESEKFNNMMLKNGTKEESENGREIIRTNFNKTVYASRGTGELWSP
B2: Nmd4-PIN-HA (S. cerevisiae Nmd4-[1-168], C-terminal 3HA tag at the genomic locus) (domain or fragment, UniProt Q12129 1-168)
chain: MTQYNFIIDASAFEKGLGNIKRWCSDCTEAVTLNFYIPTFTLNELDFLQQRRKSFAARESLKFIDRLDDSKFANLKVFIEFPEVLDIILWSDVMEHNDSSGKINIAKLPKRLKNLLKSCIYKCYLEGNEGLHWFLISEDPQIREMAMQCNIPSCSIVDVDSILSKDMN

Columns and labels:
Assay in all cases: co-IP
[1] = target: T1, TAP-Upf1-FL-G377R (S. cerevisiae) (S. cerevisiae)
[2] = target: T2, TAP-Upf1-FL-G243R (S. cerevisiae) (S. cerevisiae)
[3] = target: T3, TAP-Upf1-FL (S. cerevisiae full-length Upf1, N-terminal TAP tag, from a plasmid) (S. cerevisiae)
[4] = target: T4, Upf1-FL-TAP (S. cerevisiae full-length Upf1, TAP tag) (S. cerevisiae)

Row | Binder | binding [1] | binding [2] | binding [3] | binding [4]
1 | B1 | binds weakly | binds weakly | binds | binds
2 | B2 |  |  |  | no binding
